## Library compounds against nucleic acid targets

Targets (5′ to 3′):
SAM-II: SAM-II riboswitch RNA pseudoknot, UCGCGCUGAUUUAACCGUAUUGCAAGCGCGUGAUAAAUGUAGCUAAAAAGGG. About 21,000 compounds screened, about 200 hits.
PreQ1: PreQ1 riboswitch RNA pseudoknot, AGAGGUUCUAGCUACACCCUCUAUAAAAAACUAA. From B. subtilis. About 24,000 compounds screened, about 170 hits.
TPP: TPP riboswitch RNA three-way junction, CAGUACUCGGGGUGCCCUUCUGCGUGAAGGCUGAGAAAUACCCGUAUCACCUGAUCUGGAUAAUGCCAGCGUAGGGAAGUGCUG. About 24,000 compounds screened, about 160 hits.

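Compounds were printed on reactive glass slides in duplicate spots, a dye-labelled oligonucleotide was laid over them, and the fluorescence left after washing was read. For the PreQ1, TPP and SAM-II riboswitches the laboratory earlier reported (doi:10.1038/s41467-019-09493-3) 1 µM RNA, 2 h, and a rule that included a mean Z-score above 3 (spot signal-to-noise against the whole library), a score well above that on a control array, and duplicate spots agreeing (coefficient of variation under 100). The data file gives only the calls; its cut-offs may differ, and compounds hitting several targets are kept. A missing hit is not proof of no binding, and a hit is not a measured affinity.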 Key: Y = hit, N = tested without a hit. Compounds were drawn at random from those tested, without regard to their results. A dash means that no call is listed here.

| SMILES | SAM-II | PreQ1 | TPP |
|---|---|---|---|
| `CNc1nonc1C(=O)O` | N | N | N |
| `Cc1cccc(OCCn2c(CCCO)nc3ccccc32)c1` | N | N | N |
| `CCOC(=O)c1c(N)ncc2c(Cl)nc(SC)nc12` | N | N | N |
| `O=C(O)Cc1sc(NCc2ccccc2)nc1-c1ccccc1` | N | N | N |
| `CC12CN(Cc3ccccc3)CC(C)(CN(Cc3ccccc3)C1)C2O.O=C(O)C=CC(=O)O` (centres undefined) | N | N | N |
| `Cc1cccnc1CN1CCN(Cc2c(C)nn(CCO)c2C)CC1` | N | N | N |
| `CC(CN1CCc2ccccc2C1)NCc1nnc(-c2ccccc2)o1` (centres undefined) | N | N | N |
| `O=C(CCc1cc(O)no1)N1C[C@@H]2c3ccccc3OC[C@]2(CO)C1` | N | N | N |
| `Cc1c(COC(=O)NC(C)C)c(COC(=O)NC(C)C)c2n1CS(=O)(=O)C2` | N | N | N |
| `CC(C)OC(=O)[C@H](C)NP(=O)(OC[C@H]1O[C@@H](n2ccc(=O)[nH]c2=O)[C@](C)(F)[C@H]1O)Oc1ccccc1` (some centres undefined) | N | N | N |
| `CC(C)c1ccc(NC2=CC(=O)CC(C)(C)C2)cc1` | N | N | N |
| `COc1ccc(-c2nc3ncccn3c2Nc2ccccc2)cc1` | N | N | N |
| `COc1cccc(CNc2ccc3c(c2)ncn3C2CCCCC2)c1OC` | N | N | N |
| `CCOc1c(CNCc2cccnc2)cc(Cl)cc1OC` | N | N | N |
| `Cc1ccc(-c2nn3c(Nc4ccc(C(N)=O)cc4)cc(C)nc3c2C)cc1` | - | N | N |
| `COCCNc1c2c(c(C#N)c3nc4ccccc4n13)CCCC2` | N | N | N |
| `Cc1cc(Nc2ccc(N3CCN(C(=O)C(C)C)CC3)cc2)n2nc(-c3ccco3)nc2n1` | N | N | N |
| `Nc1cc(N2CCCC(c3nccn3Cc3ccncc3)C2)ncn1` (centres undefined) | N | N | N |
| `O=C(NCc1nncn1C1CCCCC1)C1CNCCO1` (centres undefined) | N | N | N |
| `OC(CCN1CCCCC1)(c1ccccc1)C1CC2C=CC1C2` (centres undefined) | N | N | N |
| `Cc1ccc(Cn2c(CCNC(=O)CCCO)nc3ccccc32)cc1` | - | N | N |
| `COc1cccc(S(=O)(=O)N2CCN(c3cc(C)nc(NC4CCCCC4)n3)CC2)c1` | - | N | N |
| `CNC(=O)c1ccc2c(c1)NC(=O)C2=C(Nc1cccc(CN(C)C)c1)c1ccccc1` | N | N | N |
| `CC(C)(Oc1ccc(C2CC2(Cl)Cl)cc1)C(=O)O` (centres undefined) | N | N | N |
| `Cc1ccc(OCC(O)Cn2c(C3CC(=O)N(C(C)(C)C)C3)nc3ccccc32)cc1C` (centres undefined) | - | N | N |
| `CCc1cnc(N)nc1N1CCC(CN2CCCC2=O)CC1` | N | N | N |
| `Nc1nc2c(s1)C(c1cccc(F)c1F)CC(=O)N2` (centres undefined) | N | N | N |
| `COCc1noc(CNC2CCN(c3nc(C)nc4sccc34)CC2)n1` | N | N | N |
| `CCc1cc(CN(C)C(=O)c2nc(N)n[nH]2)on1` | N | N | N |
| `O=C(NCC(O)COc1ccccc1)c1cnc(-c2cccnc2)nc1` (centres undefined) | N | N | N |
| `NS(=O)(=O)c1ccc(NC(=S)NC(=O)c2ccco2)cc1` | N | N | N |
| `CCOC(=O)C1CCCN(c2c(NCCCN3CCN(C)CC3)c(=O)c2=O)C1` (centres undefined) | - | N | N |
| `CC(C)c1nc(C(=O)N2CC[C@@H](c3ccc4c(c3)OCO4)[C@H](O)C2)cs1` | N | N | N |
| `CC(=O)O.CCC(N)Cc1c[nH]c2ccccc12` (centres undefined) | N | N | N |
| `CCOc1ccc(N2C(=O)CC(N3CCN(CCO)CC3)C2=O)cc1` (centres undefined) | N | N | N |
| `O=C(CN1C[C@H]2CC[C@@H]1CN(C1Cc3ccccc3C1)C2)N1CCNCC1` | N | N | N |
| `CC(C)n1ccnc1Cn1ncc(N2CCC(CN)CC2)cc1=O` | N | N | N |
| `OCCOc1cccc(CN2CCN(C3CCc4ccccc4C3)CC2)c1` (centres undefined) | N | N | N |
| `Cc1cccc(CN2CCCCC(NC3CSCCSC3)C2)n1` (centres undefined) | N | N | N |
| `CCc1cc(NCc2ccccc2F)n2nc(-c3cccnc3)nc2n1` | - | N | N |
| `O=C(Nc1ccc(F)cc1)OCCOc1ccc([N+](=O)[O-])cc1` | N | N | N |
| `CC1CCCN(S(=O)(=O)c2ccc(-c3nc(C#N)c(NC4CCCCC4)o3)cc2)C1` (centres undefined) | - | N | N |
| `Cc1ccc(CSc2nc(N)cc(N3CC(N4CCOCC4)C3)n2)cc1` | N | N | N |
| `CCOC(=O)N1CCC(N2C(=O)c3ccccc3C2Nc2ccc(C)cc2C)CC1` (centres undefined) | N | N | N |
| `Cc1ccccc1NS(=O)(=O)c1cc(Br)cnc1N` | - | N | N |
| `Cn1c(SCc2ccc([N+](=O)[O-])cc2)nnc1-c1cccc(N)c1` | N | N | N |
| `O=C(C1CNCCN1C(=O)CCn1nnc2ccccc21)N1CCOCC1` (centres undefined) | N | N | N |
| `CC(=O)NC(N)=NCCCC(N)C(=O)O` (centres undefined) | N | N | N |
| `CCOC(=O)c1c(NC(=S)NC)sc2c1CCCC2` | N | N | N |
| `C[C@@]1(O)CCN(C(=O)c2ccc3c(c2)CCCC3)C[C@@H]1O` | N | N | N |
| `COc1ccc(COCC(O)CN2CCOCC2)cc1OC` (centres undefined) | N | N | N |
| `O=C1c2cccc3cc([N+](=O)[O-])cc(c23)C(=O)N1CCN1CCCC1` | N | N | N |
| `Cc1ccc(NC(CNS(=O)(=O)c2ccc(Cl)cc2)c2ccccc2)cc1` (centres undefined) | - | N | N |
| `CN(C)C(=O)c1ccc(Cn2nc(C3CCCNC3)n(-c3ccccc3)c2=O)o1` (centres undefined) | N | N | N |
| `CCCCNc1cc(C)nc2nc(-c3cccnc3)nn12` | - | N | N |
| `COc1ccc(S(=O)(=O)N2CCN(c3cc(C)nc(Nc4ccc(C)cc4)n3)CC2)cc1Cl` | - | N | N |
| `Cc1cc(Nc2ccc(Br)cc2)nc(-c2ccccc2O)n1` | N | N | N |
| `COC(C)(C)CC(C)NCc1nc2cc(Cl)ccc2[nH]1` (centres undefined) | N | N | N |
| `CCC(CO)N(Cc1ccc(Oc2ncccn2)cc1)Cc1ccco1` (centres undefined) | N | N | N |
| `Cc1nc(CCC(=O)N2CCCCCC2)n(CCO)n1` | N | N | N |
| `N#CC1=C(N)Oc2c(c(=O)sc3ccccc23)C1c1ccccc1` (centres undefined) | N | N | N |
| `CC(C)c1ccc(-c2c(C#N)c(N)nc3c2CCC3)cc1` | N | N | N |
| `CC(C)c1ccc(Nc2ncnc3c2nc2n3CCCCC2)cc1` | - | N | N |
| `CCS(=O)(=O)c1ccc(O)c(Nc2cc(-c3ccccc3)ncn2)c1` | - | N | N |
| `CC(C)OC(=O)C(C)(C)Oc1ccc(C(=O)c2ccc(Cl)cc2)cc1` | N | N | N |
| `Cc1ccc(NC2(c3ccccc3)C(=O)C(c3ccccc3)=C(c3ccccc3)C2=O)cc1` | N | N | N |
| `O=C(NC1CCCCC1)N1C[C@@H](CN2CCCC2)C[C@H](CO)C1` | N | N | N |
| `CC(CN1CCc2ccccc2C1)NCCN(C)S(C)(=O)=O` (centres undefined) | N | N | N |
| `CN1CCCN(C[C@H]2C[C@H](CO)CN(c3nc(CO)cs3)C2)CC1` | N | N | N |
| `CC(=O)N1CCN(c2ccc(Nc3cc(C)nc4nc(-c5ccccc5)nn34)cc2Cl)CC1` | N | N | N |

Data from the ROBIN nucleic acid binder screens, doi:10.1002/anie.202211358.